The effect of the compound repeats well; differences between the knockouts mostly do not.
Test system: HCC-38
Test: relative cell number vs DMSO control (72 h) (% of DMSO); higher = less growth inhibition (more cells)
Description: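 QMAP-Seq: a pool of 5 breast cancer cell lines (ZR-75-1, SKBR3, HCC-38, MDA-MB-231, BT-20), each carrying 12 doxycycline-inducible Cas9 sgRNA perturbations (11 knockouts plus non-targeting sgNT), was treated with compounds for 72 h at four 10-fold doses (10 nM-10 uM or 1 nM-1 uM range). Barcodes were amplified and sequenced, and cell number was interpolated from 293T spike-in standard curves. The result is expressed as % of the median of DMSO wells. Two biological replicates.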

CC(=O)O[C@H]1C(=O)[C@@]2(C)[C@H]([C@H](OC(=O)c3ccccc3)[C@]3(O)C[C@H](OC(=O)[C@H](O)[C@@H](NC(=O)c4ccccc4)c4ccccc4)C(C)=C1C3(C)C)[C@]1(OC(C)=O)CO[C@@H]1C[C@@H]2O [Paclitaxel]
Conditions | relative cell number
sgRNA knockout: sgATF3, 10 nM | 31.5
sgRNA knockout: sgATF3, 100 nM | 16.7
sgRNA knockout: sgATF3, 1000 nM | 20.4
sgRNA knockout: sgATF3, 10000 nM | 23.9
sgRNA knockout: sgATF4, 10 nM | 31
sgRNA knockout: sgATF4, 100 nM | 13.6
sgRNA knockout: sgATF4, 1000 nM | 18.7
sgRNA knockout: sgATF4, 10000 nM | 20.82
sgRNA knockout: sgATF6, 10 nM | 29.8
sgRNA knockout: sgATF6, 100 nM | 17.5
sgRNA knockout: sgATF6, 1000 nM | 19.9
sgRNA knockout: sgATF6, 10000 nM | 35
sgRNA knockout: sgATG7, 10 nM | 31.9
sgRNA knockout: sgATG7, 100 nM | 14
sgRNA knockout: sgATG7, 1000 nM | 18.1
sgRNA knockout: sgATG7, 10000 nM | 24.07
sgRNA knockout: sgERN1, 10 nM | 31.26
sgRNA knockout: sgERN1, 100 nM | 17.7
sgRNA knockout: sgERN1, 1000 nM | 22.9
sgRNA knockout: sgERN1, 10000 nM | 25.8
sgRNA knockout: sgHSF1, 10 nM | 30.4
sgRNA knockout: sgHSF1, 100 nM | 19.6
sgRNA knockout: sgHSF1, 1000 nM | 14.7
sgRNA knockout: sgHSF1, 10000 nM | 35.5
sgRNA knockout: sgHSF2, 10 nM | 29.7
sgRNA knockout: sgHSF2, 100 nM | 23
sgRNA knockout: sgHSF2, 1000 nM | 19.3
sgRNA knockout: sgHSF2, 10000 nM | 27.5
sgRNA knockout: sgKEAP1, 10 nM | 38.4
sgRNA knockout: sgKEAP1, 100 nM | 18.2
sgRNA knockout: sgKEAP1, 1000 nM | 20.2
sgRNA knockout: sgKEAP1, 10000 nM | 33.9
sgRNA knockout: sgNFE2L2, 10 nM | 32.3
sgRNA knockout: sgNFE2L2, 100 nM | 12.6
sgRNA knockout: sgNFE2L2, 1000 nM | 16.5
sgRNA knockout: sgNFE2L2, 10000 nM | 20.3
sgRNA knockout: sgSLC35F2, 10 nM | 30.1
sgRNA knockout: sgSLC35F2, 100 nM | 13.2
sgRNA knockout: sgSLC35F2, 1000 nM | 21.1
sgRNA knockout: sgSLC35F2, 10000 nM | 22.4
sgRNA knockout: sgXBP1, 10 nM | 28.2
sgRNA knockout: sgXBP1, 100 nM | 15.8
sgRNA knockout: sgXBP1, 1000 nM | 17.2
sgRNA knockout: sgXBP1, 10000 nM | 25.2

C=C1C(=O)O[C@H]2[C@H]1CC/C(C)=C/CC[C@@]1(C)O[C@@H]21 [Parthenolide]
Conditions | relative cell number
sgRNA knockout: sgATF3, 10 nM | 120
sgRNA knockout: sgATF3, 100 nM | 109
sgRNA knockout: sgATF3, 1000 nM | 112
sgRNA knockout: sgATF3, 10000 nM | 105
sgRNA knockout: sgATF4, 10 nM | 116
sgRNA knockout: sgATF4, 100 nM | 98
sgRNA knockout: sgATF4, 1000 nM | 110
sgRNA knockout: sgATF4, 10000 nM | 111
sgRNA knockout: sgATF6, 10 nM | 126
sgRNA knockout: sgATF6, 100 nM | 94.2
sgRNA knockout: sgATF6, 1000 nM | 109
sgRNA knockout: sgATF6, 10000 nM | 118
sgRNA knockout: sgATG7, 10 nM | 120
sgRNA knockout: sgATG7, 100 nM | 92
sgRNA knockout: sgATG7, 1000 nM | 105
sgRNA knockout: sgATG7, 10000 nM | 105
sgRNA knockout: sgERN1, 10 nM | 110
sgRNA knockout: sgERN1, 100 nM | 109
sgRNA knockout: sgERN1, 1000 nM | 106
sgRNA knockout: sgERN1, 10000 nM | 113.9
sgRNA knockout: sgHSF1, 10 nM | 137
sgRNA knockout: sgHSF1, 100 nM | 120
sgRNA knockout: sgHSF1, 1000 nM | 102
sgRNA knockout: sgHSF1, 10000 nM | 106
sgRNA knockout: sgHSF2, 10 nM | 126
sgRNA knockout: sgHSF2, 100 nM | 108
sgRNA knockout: sgHSF2, 1000 nM | 108
sgRNA knockout: sgHSF2, 10000 nM | 112.5
sgRNA knockout: sgKEAP1, 10 nM | 129
sgRNA knockout: sgKEAP1, 100 nM | 103
sgRNA knockout: sgKEAP1, 1000 nM | 101
sgRNA knockout: sgKEAP1, 10000 nM | 109
sgRNA knockout: sgNFE2L2, 10 nM | 131
sgRNA knockout: sgNFE2L2, 100 nM | 101
sgRNA knockout: sgNFE2L2, 1000 nM | 102
sgRNA knockout: sgNFE2L2, 10000 nM | 108
sgRNA knockout: sgSLC35F2, 10 nM | 117
sgRNA knockout: sgSLC35F2, 100 nM | 103
sgRNA knockout: sgSLC35F2, 1000 nM | 101
sgRNA knockout: sgSLC35F2, 10000 nM | 105.2
sgRNA knockout: sgXBP1, 10 nM | 118
sgRNA knockout: sgXBP1, 100 nM | 93.2
sgRNA knockout: sgXBP1, 1000 nM | 115
sgRNA knockout: sgXBP1, 10000 nM | 113

CNC(=O)c1cc(Oc2ccc(NC(=O)Nc3ccc(Cl)c(C(F)(F)F)c3)c(F)c2)ccn1 [Regorafenib]
Conditions | relative cell number
sgRNA knockout: sgATF3, 10 nM | 112
sgRNA knockout: sgATF3, 100 nM | 127
sgRNA knockout: sgATF3, 1000 nM | 103
sgRNA knockout: sgATF3, 10000 nM | 61.9
sgRNA knockout: sgATF4, 10 nM | 119
sgRNA knockout: sgATF4, 100 nM | 117
sgRNA knockout: sgATF4, 1000 nM | 95
sgRNA knockout: sgATF4, 10000 nM | 64.3
sgRNA knockout: sgATF6, 10 nM | 124
sgRNA knockout: sgATF6, 100 nM | 117
sgRNA knockout: sgATF6, 1000 nM | 115
sgRNA knockout: sgATF6, 10000 nM | 63
sgRNA knockout: sgATG7, 10 nM | 117
sgRNA knockout: sgATG7, 100 nM | 110
sgRNA knockout: sgATG7, 1000 nM | 98.9
sgRNA knockout: sgATG7, 10000 nM | 64.4
sgRNA knockout: sgERN1, 10 nM | 118
sgRNA knockout: sgERN1, 100 nM | 110
sgRNA knockout: sgERN1, 1000 nM | 105
sgRNA knockout: sgERN1, 10000 nM | 54.96
sgRNA knockout: sgHSF1, 10 nM | 128
sgRNA knockout: sgHSF1, 100 nM | 115
sgRNA knockout: sgHSF1, 1000 nM | 114
sgRNA knockout: sgHSF1, 10000 nM | 62.98
sgRNA knockout: sgHSF2, 10 nM | 119
sgRNA knockout: sgHSF2, 100 nM | 113
sgRNA knockout: sgHSF2, 1000 nM | 115
sgRNA knockout: sgHSF2, 10000 nM | 65.1
sgRNA knockout: sgKEAP1, 10 nM | 125
sgRNA knockout: sgKEAP1, 100 nM | 116
sgRNA knockout: sgKEAP1, 1000 nM | 120
sgRNA knockout: sgKEAP1, 10000 nM | 50.1
sgRNA knockout: sgNFE2L2, 10 nM | 112.6
sgRNA knockout: sgNFE2L2, 100 nM | 123
sgRNA knockout: sgNFE2L2, 1000 nM | 98
sgRNA knockout: sgNFE2L2, 10000 nM | 61.4
sgRNA knockout: sgSLC35F2, 10 nM | 116
sgRNA knockout: sgSLC35F2, 100 nM | 112
sgRNA knockout: sgSLC35F2, 1000 nM | 93.8
sgRNA knockout: sgSLC35F2, 10000 nM | 64.3
sgRNA knockout: sgXBP1, 10 nM | 121
sgRNA knockout: sgXBP1, 100 nM | 116
sgRNA knockout: sgXBP1, 1000 nM | 100
sgRNA knockout: sgXBP1, 10000 nM | 65.2

Source: the supplement of paper PMC7661543
